In PMC6209375 one finds binding data, which are given here for 1 substance.

These are yes or no findings as the source states them, for the method shown. In cells and extracts the contact can be indirect. For some of these results: A result given as binding can be weak or reduced; the word gives no strength. Tags and fused reporters may be left off the sequences shown.

Holding throughout (assay): pull-down; GST fusions of NCL and its fragments on glutathione-sepharose beads (25 uM GST fusion protein, three-fold molar excess of prey) incubated in lysates of RK-13 cells transfected with the myc-VP60 plasmid for 48 h; blot with anti-VP60 mAb; only the target purified
For one test, the target named is T1, GST-NTD-C (rabbit) (UniProt G1TVT0).
T1 sequence: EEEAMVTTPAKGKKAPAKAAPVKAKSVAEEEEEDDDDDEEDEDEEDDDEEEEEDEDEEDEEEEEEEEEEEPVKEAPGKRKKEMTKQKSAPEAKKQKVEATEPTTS

The next test addresses T2, GST-NTD-C1 (rabbit) (UniProt G1TVT0).
T2 sequence: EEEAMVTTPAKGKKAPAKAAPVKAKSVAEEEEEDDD

For a further test, the target named is T3, GST-NTD-C3 (rabbit) (UniProt G1TVT0).
T3 sequence: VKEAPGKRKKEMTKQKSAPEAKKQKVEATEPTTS

For a further test, the target named is T4, GST-NTD-C2 (rabbit) (UniProt G1TVT0).
T4 sequence: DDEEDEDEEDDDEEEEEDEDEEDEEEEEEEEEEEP

On to “myc-VP60 (myc-tagged RHDV capsid protein VP60)”, for which the binding entry is given as “binds” in the test with GST-NTD-C (rabbit), “no binding” with GST-NTD-C1 (rabbit), “binds” with GST-NTD-C3 (rabbit) and “no binding” with GST-NTD-C2 (rabbit).
